Data published in US20210095041A1.
No constants are given. Whether binding was seen depends on the method and setting. Some binding calls cover weakened binding; strength is not graded here.

Key:
[1] = biological target: recombinant cynomolgus monkey CD39 (cynomolgus monkey); assay: BLI (Octet), AHC biosensor
[2] = biological target: recombinant cynomolgus monkey CD39 (cynomolgus monkey); assay: BLI (Octet)

binding [1]: binds
binding [2]: binds
B1: clone 22 (antibody, human IgG4 S228P, kappa, V domains shown)
VH: QVQLVQSGAEVKKPGSSVKVSCKASGGTFSSEGISWVRQAPGQGLEWMGSILPIFGTANYAQKFQGRVTITADESTSTAYMELSSLRSEDTAVYYCAREAGYYRYRYFDLWGRGTLVTVSS
VL: EIVMTQSPATLSVSPGERATLSCRASQSVSSNLAWYQQKPGQAPRLLIYGASTRATGIPARFSGSGSGTEFTLTISSLQSEDFAVYYCQQHALWPLTFGGGTKVEIKR
